Measurements from the supplement of paper PMC7661543.
± gives the standard deviation of the averaged measurements. Differences between knockout arms are mostly noise.

Test system: MDA-MB-231
Assay: relative cell number vs DMSO control (72 h) (% of DMSO); higher = less growth inhibition (more cells)
Procedure: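 QMAP-Seq: a pool of 5 breast cancer cell lines (ZR-75-1, SKBR3, HCC-38, MDA-MB-231, BT-20), each carrying 12 doxycycline-inducible Cas9 sgRNA perturbations (11 knockouts plus non-targeting sgNT), was treated with compounds for 72 h at four 10-fold doses (10 nM-10 uM or 1 nM-1 uM range). Barcodes were amplified and sequenced, and cell number was interpolated from 293T spike-in standard curves. The result is expressed as % of the median of DMSO wells. Two biological replicates.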

Fc1ccc(CNc2ncnc3ccc(F)cc23)cc1 [Spautin1]
Settings | relative cell number
sgRNA knockout: sgATF3, 10 nM | 85.7 ± 16
sgRNA knockout: sgATF3, 100 nM | 101 ± 16
sgRNA knockout: sgATF3, 1000 nM | 108 ± 4.4
sgRNA knockout: sgATF3, 10000 nM | 92.6 ± 33
sgRNA knockout: sgATF4, 10 nM | 98 ± 9.4
sgRNA knockout: sgATF4, 100 nM | 80.2 ± 15
sgRNA knockout: sgATF4, 1000 nM | 91.6 ± 16
sgRNA knockout: sgATF4, 10000 nM | 108 ± 34
sgRNA knockout: sgATF6, 10 nM | 128 ± 24
sgRNA knockout: sgATF6, 100 nM | 98.8 ± 12
sgRNA knockout: sgATF6, 1000 nM | 89.7 ± 18
sgRNA knockout: sgATF6, 10000 nM | 102 ± 1.2
sgRNA knockout: sgATG7, 10 nM | 106 ± 14
sgRNA knockout: sgATG7, 100 nM | 111 ± 36
sgRNA knockout: sgATG7, 1000 nM | 92.5 ± 14
sgRNA knockout: sgATG7, 10000 nM | 87.7 ± 24
sgRNA knockout: sgERN1, 10 nM | 99.5 ± 2.6
sgRNA knockout: sgERN1, 100 nM | 84.6 ± 9.6
sgRNA knockout: sgERN1, 1000 nM | 97.9 ± 5.8
sgRNA knockout: sgERN1, 10000 nM | 104 ± 31
sgRNA knockout: sgHSF1, 10 nM | 108 ± 40
sgRNA knockout: sgHSF1, 100 nM | 92.9 ± 11
sgRNA knockout: sgHSF1, 1000 nM | 106 ± 7.8
sgRNA knockout: sgHSF1, 10000 nM | 102 ± 27
sgRNA knockout: sgHSF2, 10 nM | 111 ± 26
sgRNA knockout: sgHSF2, 100 nM | 127 ± 9.8
sgRNA knockout: sgHSF2, 1000 nM | 88.7 ± 6.8
sgRNA knockout: sgHSF2, 10000 nM | 98.8 ± 20
sgRNA knockout: sgKEAP1, 10 nM | 105 ± 25
sgRNA knockout: sgKEAP1, 100 nM | 88.3 ± 16
sgRNA knockout: sgKEAP1, 1000 nM | 93.3 ± 6.7
sgRNA knockout: sgKEAP1, 10000 nM | 75.3 ± 23
sgRNA knockout: sgNFE2L2, 10 nM | 99.5 ± 22
sgRNA knockout: sgNFE2L2, 100 nM | 82.2 ± 6.3
sgRNA knockout: sgNFE2L2, 1000 nM | 87.5 ± 11
sgRNA knockout: sgNFE2L2, 10000 nM | 94.8 ± 11
sgRNA knockout: sgSLC35F2, 10 nM | 100 ± 13
sgRNA knockout: sgSLC35F2, 100 nM | 103 ± 22
sgRNA knockout: sgSLC35F2, 1000 nM | 77.9 ± 21
sgRNA knockout: sgSLC35F2, 10000 nM | 87.9 ± 9.5
sgRNA knockout: sgXBP1, 10 nM | 98.4 ± 4
sgRNA knockout: sgXBP1, 100 nM | 85.5 ± 12
sgRNA knockout: sgXBP1, 1000 nM | 82.7 ± 9.9
sgRNA knockout: sgXBP1, 10000 nM | 89.8 ± 2.8

NC(=O)Nc1sc(-c2ccc(F)cc2)cc1C(N)=O [TPCA1]
Settings | relative cell number
sgRNA knockout: sgATF3, 10 nM | 122 ± 24
sgRNA knockout: sgATF3, 100 nM | 92.4 ± 9.6
sgRNA knockout: sgATF3, 1000 nM | 121 ± 19
sgRNA knockout: sgATF3, 10000 nM | 61 ± 11
sgRNA knockout: sgATF4, 10 nM | 98 ± 17
sgRNA knockout: sgATF4, 100 nM | 120 ± 12
sgRNA knockout: sgATF4, 1000 nM | 145 ± 9.6
sgRNA knockout: sgATF4, 10000 nM | 79.4 ± 52
sgRNA knockout: sgATF6, 10 nM | 112 ± 24
sgRNA knockout: sgATF6, 100 nM | 86.5 ± 14
sgRNA knockout: sgATF6, 1000 nM | 125 ± 16
sgRNA knockout: sgATF6, 10000 nM | 57.1 ± 5.8
sgRNA knockout: sgATG7, 10 nM | 94.6 ± 6.7
sgRNA knockout: sgATG7, 100 nM | 104 ± 11
sgRNA knockout: sgATG7, 1000 nM | 124 ± 22
sgRNA knockout: sgATG7, 10000 nM | 57.9 ± 9.2
sgRNA knockout: sgERN1, 10 nM | 117 ± 9
sgRNA knockout: sgERN1, 100 nM | 96.2 ± 38
sgRNA knockout: sgERN1, 1000 nM | 132 ± 21
sgRNA knockout: sgERN1, 10000 nM | 52.7 ± 4.2
sgRNA knockout: sgHSF1, 10 nM | 95.9 ± 25
sgRNA knockout: sgHSF1, 100 nM | 107 ± 13
sgRNA knockout: sgHSF1, 1000 nM | 105 ± 6.9
sgRNA knockout: sgHSF1, 10000 nM | 58.8 ± 5.1
sgRNA knockout: sgHSF2, 10 nM | 109 ± 23
sgRNA knockout: sgHSF2, 100 nM | 107 ± 17
sgRNA knockout: sgHSF2, 1000 nM | 114 ± 15
sgRNA knockout: sgHSF2, 10000 nM | 68.1 ± 1.1
sgRNA knockout: sgKEAP1, 10 nM | 101 ± 3.1
sgRNA knockout: sgKEAP1, 100 nM | 89.5 ± 20
sgRNA knockout: sgKEAP1, 1000 nM | 109 ± 38
sgRNA knockout: sgKEAP1, 10000 nM | 63.1 ± 3.4
sgRNA knockout: sgNFE2L2, 10 nM | 105 ± 18
sgRNA knockout: sgNFE2L2, 100 nM | 90.9 ± 18
sgRNA knockout: sgNFE2L2, 1000 nM | 95 ± 7.8
sgRNA knockout: sgNFE2L2, 10000 nM | 52.9 ± 1.6
sgRNA knockout: sgSLC35F2, 10 nM | 118 ± 14
sgRNA knockout: sgSLC35F2, 100 nM | 97.8 ± 16
sgRNA knockout: sgSLC35F2, 1000 nM | 115 ± 17
sgRNA knockout: sgSLC35F2, 10000 nM | 64.1 ± 2.9
sgRNA knockout: sgXBP1, 10 nM | 90.9 ± 24
sgRNA knockout: sgXBP1, 100 nM | 99.7 ± 14
sgRNA knockout: sgXBP1, 1000 nM | 125 ± 28
sgRNA knockout: sgXBP1, 10000 nM | 56.5 ± 8.4

Cn1nnc2c(C(N)=O)ncn2c1=O [Temozolomide]
Settings | relative cell number
sgRNA knockout: sgATF3, 10 nM | 112 ± 29
sgRNA knockout: sgATF3, 100 nM | 100 ± 9.8
sgRNA knockout: sgATF3, 1000 nM | 112 ± 18
sgRNA knockout: sgATF3, 10000 nM | 96.3 ± 5.6
sgRNA knockout: sgATF4, 10 nM | 155 ± 9.7
sgRNA knockout: sgATF4, 100 nM | 115 ± 13
sgRNA knockout: sgATF4, 1000 nM | 111 ± 43
sgRNA knockout: sgATF4, 10000 nM | 122 ± 2.9
sgRNA knockout: sgATF6, 10 nM | 108 ± 19
sgRNA knockout: sgATF6, 100 nM | 119 ± 9.8
sgRNA knockout: sgATF6, 1000 nM | 106 ± 16
sgRNA knockout: sgATF6, 10000 nM | 82.6 ± 13
sgRNA knockout: sgATG7, 10 nM | 122 ± 11
sgRNA knockout: sgATG7, 100 nM | 91.8 ± 9
sgRNA knockout: sgATG7, 1000 nM | 124 ± 5.3
sgRNA knockout: sgATG7, 10000 nM | 83.2 ± 5.2
sgRNA knockout: sgERN1, 10 nM | 111 ± 6.1
sgRNA knockout: sgERN1, 100 nM | 106 ± 30
sgRNA knockout: sgERN1, 1000 nM | 122 ± 19
sgRNA knockout: sgERN1, 10000 nM | 96.6 ± 14
sgRNA knockout: sgHSF1, 10 nM | 104 ± 2.2
sgRNA knockout: sgHSF1, 100 nM | 93.6 ± 8.4
sgRNA knockout: sgHSF1, 1000 nM | 101 ± 6.1
sgRNA knockout: sgHSF1, 10000 nM | 73.5 ± 19
sgRNA knockout: sgHSF2, 10 nM | 136 ± 4
sgRNA knockout: sgHSF2, 100 nM | 125 ± 13
sgRNA knockout: sgHSF2, 1000 nM | 112 ± 10
sgRNA knockout: sgHSF2, 10000 nM | 71.8 ± 5.7
sgRNA knockout: sgKEAP1, 10 nM | 140.8 ± 1.1
sgRNA knockout: sgKEAP1, 100 nM | 107 ± 9.5
sgRNA knockout: sgKEAP1, 1000 nM | 93.4 ± 2
sgRNA knockout: sgKEAP1, 10000 nM | 75.7 ± 7.3
sgRNA knockout: sgNFE2L2, 10 nM | 126 ± 19
sgRNA knockout: sgNFE2L2, 100 nM | 103 ± 16
sgRNA knockout: sgNFE2L2, 1000 nM | 111 ± 8.7
sgRNA knockout: sgNFE2L2, 10000 nM | 91.2 ± 24
sgRNA knockout: sgSLC35F2, 10 nM | 97 ± 2.3
sgRNA knockout: sgSLC35F2, 100 nM | 96.6 ± 25
sgRNA knockout: sgSLC35F2, 1000 nM | 92.4 ± 17
sgRNA knockout: sgSLC35F2, 10000 nM | 85.9 ± 26
sgRNA knockout: sgXBP1, 10 nM | 116 ± 7.6
sgRNA knockout: sgXBP1, 100 nM | 101 ± 2
sgRNA knockout: sgXBP1, 1000 nM | 125.1 ± 0.72
sgRNA knockout: sgXBP1, 10000 nM | 77.2 ± 3.9
